Results as given in doi:10.1101/2025.05.08.652646.
Results are given in words; binding and its absence hold for the method and conditions named. Binding calls can cover weak binding; strength is not graded here.

Target: N-terminal domain of LypB (Caulobacter crescentus)
Assay: two-hybrid

LypA CARD-like domain (aa 1-84) (from UniProt A0A0H3IFL3) (domain or fragment)
binding: binds
